Measured values reported in article PMC11068563, “The MCU and MCUb amino-terminal domains tightly interact: mechanisms for low conductance assembly of the mitochondrial calcium uniporter complex” (iScience, 2024).
Results are given in words; binding and its absence hold for the method and conditions named. Some results given as binding are weak or reduced against the parent protein; the word gives no strength.

Chains of the proteins cited; added tags and fusions are not shown. Residues count along the entry.
UniProt Q8NE86, residues 72-189: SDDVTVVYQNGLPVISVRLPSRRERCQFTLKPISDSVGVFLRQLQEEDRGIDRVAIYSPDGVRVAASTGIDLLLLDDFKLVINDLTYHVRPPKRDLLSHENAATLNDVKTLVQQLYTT

How the values were obtained:
[1] = target: MCU amino-terminal domain (MCU-NTD), MCU residues 72-189 (human) (UniProt Q8NE86); test: cross-linking; 1 mM BS-3, 90 min, 20 mM HEPES (pH 8.4), 150 mM NaCl, 1 mM DTT, ambient temperature; proteins at 67.5 uM, mix with 67.5 uM or 33.8 uM of each; SDS-PAGE, Coomassie; both purified
[2] = target: MCU amino-terminal domain (MCU-NTD), MCU residues 72-189 (human) (UniProt Q8NE86); test: SEC-MALS; as a1 at 3 mg/mL, with 5 mM CaCl2; both purified
[3] = target: MCU amino-terminal domain (MCU-NTD), MCU residues 72-189 (human) (UniProt Q8NE86); test: dynamic light scattering; MCUb-NTD, MCU-NTD and the mix at 67.5 uM total protein; buffer and temperature differ from the first DLS experiment; both purified
[4] = target: MCU amino-terminal domain (MCU-NTD), MCU residues 72-189 (human) (UniProt Q8NE86); test: SEC-MALS; as a1 at 3 mg/mL, with 5 mM MgCl2; both purified
[5] = target: MCU amino-terminal domain (MCU-NTD), MCU residues 72-189 (human) (UniProt Q8NE86); test: SEC-MALS; Superdex 200 Increase 10/300 GL, 100 uL injections, 20 mM Tris (pH 8.5), 150 mM NaCl, 1 mM DTT, 10°C; MCUb-NTD at 2, 3, 4 mg/mL, MCU-NTD at 3 mg/mL, mix of 3 mg/mL each (~1:1 molar); ~20x dilution on the column; fractions on SDS-PAGE; no divalent cations; both purified

Measured: binding

B1: MCUb amino-terminal domain (MCUb-NTD), MCUb residues 58-159 (domain or fragment, human, UniProt Q9NWR8 58-159, looked up)
chain: DEITVIYRHGLPLVTLTLPSRKERCQFVVKPMLSTVGSFLQDLQNEDKGIKTAAIFTADGNMISASTLMDILLMNDFKLVINKIAYDVQCPKREKPSNEHTA
notes: MCU dominant negative beta subunit (MCUb), Homo sapiens, GenBank NP_060388.2, residues 58-159 (amino-terminal domain); Cloned into pET-28a by NheI and XhoI; printed as 6xHis-MCUb_(58-159); theoretical monomer mass 12.0098 kDa and 107 expected backbone amides are printed, so a few vector residues probably remain after thrombin cleavage (surmise); also called MCUb_(58-159); 15N-MCUb-NTD; source: E. …
binds: all assays above
